“Also recorded” adds a separate entry of the source.

The data set relates to lung elastin. The data set can be described thus: Lung desmosine and isodesmosine measurements (lung elastin content). It counts as in vivo, Syrian hamsters. The note with it: 24 hours.

“elastase: porcine pancreatic elastase (Elastin Products), used to induce emphysema”: under “all animals receiving elastase vs saline alone”, the lung elastin content result is listed as “significant reduction in lung elastin content; also recorded: significant decrease in cross-linked elastin”. For the same substance, the “lung content of desmosine and isodesmosine cross-links (elastin)” value (saline then elastase) came out at 192 μg/mg dry lung.
For hyaluronidase, the “lung content of desmosine and isodesmosine cross-links (elastin)” value is 184 μg/mg dry lung (elastase then hyaluronidase) and 206 μg/mg dry lung (hyaluronidase then elastase).

Source of the values: patent publication US5633003A, “Use of intratracheally administered hyaluronic acid to ameliorate emphysema” (priority 1994, dated 1997).
